According to US7456294B2, “Hairpin polyamide” (Japan Science and Technology Agency, priority 2002, dated 2008):
The amount applied is not stated for every result.

System: 39 human cultured cancer cell lines
Experiment: Cytostatic activity on 39 human cultured cancer cell lines
Format: cell-based
Conditions: Compound 13 compared with Compound 14
From the text: The first is the proportional relationship between the DNA-alkylating ability and the cytostatic activity (FIG. 8). For example, the mean IC50 values of ImPyDu (−4.59), ImPyDu86 (−5.95) and ImPyLDu86 (−8.25) were reduced gradually as the DNA-alkylating ability was increased.
A further interesting result was obtained when comparing the fingerprint patterns indicating the cytostatic activity of the hairpin sequence-specific alkylating agents ImPyPy-γ-ImPyLDu 36 (13) and ImPyPy-γ-ImPyPyLDu 36 (14) (FIG. 9). In general, a high correlation coefficient (r=0.75 to 1.0) is known to be obtained when comparing the fingerprint patterns between the drugs whose action mechanisms are analogous to each other, and in fact an extremely high analogy was observed among a DNA intercalator, doxorubicin, daunorubicin and epirubicin. […] The influence on the cytostatic activity attributable only to the difference in the base sequence-recognizing ability in spite of the analogy in the structure as observed with these Compound 13 and 14 has never been reported, and thus is one of the most important findings.

SMILES | correlation of the fingerprint patterns (r)
COC(=O)C1=C(C)CC2=C1[C@@]13C[C@@H]1CN(C(=O)/C=C/c1cc(NC(=O)c4nc(NC(=O)CCCNC(=O)c5cc(NC(=O)c6cc(NC(=O)c7nc(NC(C)=O)cn7C)cn6C)cn5C)cn4C)cn1C)C3=CC2=O [Compound 13, AcImPyPy-γ-ImPyLCPI] | 0.60
COC(=O)c1c(C)[nH]c2c1[C@@]13C[C@@H]1CN(C(=O)/C=C/c1cc(NC(=O)c4cc(NC(=O)c5nc(NC(=O)CCCNC(=O)c6cc(NC(=O)c7cc(NC(=O)c8nc(NC(C)=O)cn8C)cn7C)cn6C)cn5C)cn4C)cn1C)C3=CC2=O [Compound 14, AcImPyPy-γ-ImPyPyLCPI] | 0.60
